Consider two molecules from patent US20130302347A1.

The chains behind the UniProt entries cited, without tags or fusion partners. Where a name states a change or a piece, a line headed by the entry shows the natural chain unless it says otherwise.
UniProt Q6UW32: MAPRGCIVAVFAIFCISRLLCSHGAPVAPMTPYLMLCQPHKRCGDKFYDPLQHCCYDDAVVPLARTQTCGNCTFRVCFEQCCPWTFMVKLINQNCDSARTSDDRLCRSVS

No constants are given. Whether binding was seen depends on the method and setting. Some binding calls cover weakened binding; strength is not graded here. Where a sequence is shown, tags or fusion partners need not be part of it.

Assay [1] has as its target IGFL1 protein preparations in the SPDI library microarray (5 individual preparations) (human) (UniProt Q6UW32). Nature of the assay: protein microarray probed with Cy-5 labelled TMEM149-Fc (reverse screen).
For assay [2] the target is unchanged. Nature of the assay: protein microarray (SPDI library), fluorescently labelled probe at 20 µg/ml, intensity at 635 nm normalised to the slide average.
The target of assay [3] is T1, mTMEM149-Fc (mouse TMEM149 extracellular domain with C-terminal human IgG1 Fc) (mouse; human) (UniProt Q3U4N7).
T1 sequence: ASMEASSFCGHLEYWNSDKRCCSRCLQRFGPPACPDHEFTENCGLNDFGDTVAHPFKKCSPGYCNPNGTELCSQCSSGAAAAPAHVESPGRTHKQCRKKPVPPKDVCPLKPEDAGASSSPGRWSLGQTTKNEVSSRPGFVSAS
Kind of assay: SPR, mTMEM149-Fc immobilised, fits overlaid. Background: SPR reads the build-up and loss of mass on a sensor chip optically.

For assay [4], the target named is T1, mTMEM149-Fc (mouse TMEM149 extracellular domain with C-terminal human IgG1 Fc) (mouse; human). Kind of assay: sandwich ELISA; plates coated with mTMEM149-Fc capture FLAG-mIGFL, detected with anti-FLAG-HRP. (In general: An ELISA detects its analyte on a solid surface through an enzyme-linked reagent.)

B1: TMEM149-Fc (human TMEM149 extracellular domain with C-terminal human IgG1 Fc) (Fc fusion, not shown: a dimerising Fc or GST)
chain: SQYCGRLEYWNPDNKCCSSCLQRFGPPPCPDYEFRENCGLNDHGDFVTPPFRKCSSGQCNPDGAELCSPCGGGAVTPTPAAGGGRTPWRCRERPVPAKGHCPLTPGNPGAPSSQERSSPASSIAWRTPEPVPQQAWPN
For B1, the binding entry in assay [1] and in assay [2] was “binds” each time.

B2: FLAG-mIGFL (recombinant mouse IGFL with N-terminal FLAG epitope tag) (ligand, not shown: small tags and cut ends)
chain: RKISTFSGPGSWPCNPKCDGRTYNPSEECCVHDTILPFKRINLCGPSCTYRPCFELCCPESYSPKKKFIVKLKVHGERSHCSSSPISRNCKSNKIFHGEDIEDNQLSLRKKSGDQP
Turning to B2, the binding entry in assay [3] and in assay [4] was “binds” each time.
